# Data reported in paper PMC3814766.
# Sequences of proteins named here, by UniProt entry; tags and fusion partners are left off.
# UniProt P03146: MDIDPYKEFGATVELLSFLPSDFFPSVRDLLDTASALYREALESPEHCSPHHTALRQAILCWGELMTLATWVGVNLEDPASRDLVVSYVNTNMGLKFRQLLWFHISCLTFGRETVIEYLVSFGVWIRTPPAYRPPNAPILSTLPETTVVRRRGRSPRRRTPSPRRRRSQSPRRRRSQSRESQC
# UniProt Q9GZX7: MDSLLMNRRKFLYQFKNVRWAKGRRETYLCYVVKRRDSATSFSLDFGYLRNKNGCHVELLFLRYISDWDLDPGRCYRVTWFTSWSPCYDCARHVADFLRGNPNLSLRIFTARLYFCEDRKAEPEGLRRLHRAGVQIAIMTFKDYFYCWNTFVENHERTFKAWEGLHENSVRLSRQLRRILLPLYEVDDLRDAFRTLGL
# Results are given in words; binding and its absence hold for the method and conditions named. In cells and extracts the contact can be indirect. Some entries that bind do so weakly or less than the wild type.
# Target: HBV core protein (hepatitis B virus, genotype D (HepAD38 cells)) (UniProt P03146)
# Experiment: co-IP; HepAD38 cells transduced with AID-expressing vector were lysed and immunoprecipitated with anti-core antibody or control normal IgG; AID detected by immunoblot
substance,measurement,value
activation-induced cytidine deaminase (from UniProt Q9GZX7 1-198) (enzyme),binding,binds
